Data taken from patent US20090122237A1, “POLYMER FILM, METHOD FOR PRODUCING POLYMER FILM, OPTICAL FILM AND POLARIZING PLATE AND LIQUID CRYSTAL DISPLAY DEVICE USING THE SAME” (FUJIFILM Corporation, priority 2005, published 2009).

Assay: Rth raising agent, data of the formula (1) (Rth(a)−Rth(0))/a
Details: Rth at 550 nm; a = % by mass to 100 parts cellulose acylate

SMILES | data of the formula (1) (Rth(a)−Rth(0))/a of the Rth raising agent
COc1ccc(Nc2nc(Nc3cccc(C)c3)nc(Nc3cccc(C)c3)n2)cc1 [II-334] | 28
CCCCCCCCOC(=O)CCc1cc(-n2n3c4ccc(Cl)cc4n23)c(O)c(C(C)(C)C)c1 [IV-16] | 18
